Results are given in words; binding and its absence hold for the method and conditions named. Some entries that bind do so weakly or less than the wild type.
Tests used:
[1] = biological target: human B-cell associated protein-37 (human BAP-37) (human); test: yeast two-hybrid interaction profile compared with the functional profile
[2] = biological target: human B-cell associated protein-37 (human BAP-37) (human); test: yeast two-hybrid
[3] = biological target: human B-cell associated protein-37 (human BAP-37) (human); test: beta-galactosidase yeast two-hybrid interaction profile against clone 3.2CL8 Y_AS_U 0001

| binding [1] | binding [2] | binding [3] | Binder |
| --- | --- | --- | --- |
| binds | binds |  | TGVHVELQINRSIMHYISSP [peptide CL08wt] |
|  | binds | binds | TGVHVELQIAASIMHYISSP [peptide CL08NR] |
|  | binds | binds | TGAAVELQINRSIMHYISSP [peptide CL08VH] |

— patent US20040014649A1 (RIGEL PHARMACEUTICALS, published 2004)
